The values that follow come from paper PMC3475652.

By UniProt entry, the sequences of proteins in these tests, tags left out.
UniProt Q08999: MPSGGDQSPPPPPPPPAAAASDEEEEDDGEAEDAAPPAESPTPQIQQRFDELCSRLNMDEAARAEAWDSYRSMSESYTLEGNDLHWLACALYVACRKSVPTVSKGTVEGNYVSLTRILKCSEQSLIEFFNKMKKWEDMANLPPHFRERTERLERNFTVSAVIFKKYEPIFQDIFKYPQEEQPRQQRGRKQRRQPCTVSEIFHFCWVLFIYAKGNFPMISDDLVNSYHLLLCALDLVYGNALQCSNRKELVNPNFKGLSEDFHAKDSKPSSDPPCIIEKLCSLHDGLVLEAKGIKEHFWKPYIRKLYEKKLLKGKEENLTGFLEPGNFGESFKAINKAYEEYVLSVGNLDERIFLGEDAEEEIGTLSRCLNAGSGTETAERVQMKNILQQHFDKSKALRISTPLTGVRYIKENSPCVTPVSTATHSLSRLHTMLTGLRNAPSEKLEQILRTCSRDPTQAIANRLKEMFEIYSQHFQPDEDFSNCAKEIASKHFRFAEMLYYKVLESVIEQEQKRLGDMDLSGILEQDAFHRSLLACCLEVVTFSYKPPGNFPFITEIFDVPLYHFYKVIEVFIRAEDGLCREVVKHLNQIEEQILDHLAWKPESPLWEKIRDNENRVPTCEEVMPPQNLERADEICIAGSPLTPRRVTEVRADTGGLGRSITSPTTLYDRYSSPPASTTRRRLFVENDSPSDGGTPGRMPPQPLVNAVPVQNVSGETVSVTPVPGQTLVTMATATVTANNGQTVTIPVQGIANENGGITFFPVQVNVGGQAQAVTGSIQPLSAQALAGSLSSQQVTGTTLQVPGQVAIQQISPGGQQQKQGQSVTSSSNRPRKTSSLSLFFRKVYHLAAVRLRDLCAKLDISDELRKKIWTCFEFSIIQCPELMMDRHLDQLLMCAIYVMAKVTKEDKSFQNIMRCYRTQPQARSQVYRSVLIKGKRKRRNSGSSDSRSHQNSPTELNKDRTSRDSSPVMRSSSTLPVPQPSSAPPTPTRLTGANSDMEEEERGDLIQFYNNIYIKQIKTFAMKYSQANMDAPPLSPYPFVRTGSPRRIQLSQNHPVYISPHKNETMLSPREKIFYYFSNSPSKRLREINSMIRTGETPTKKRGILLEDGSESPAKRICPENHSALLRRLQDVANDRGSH
UniProt Q96GY3: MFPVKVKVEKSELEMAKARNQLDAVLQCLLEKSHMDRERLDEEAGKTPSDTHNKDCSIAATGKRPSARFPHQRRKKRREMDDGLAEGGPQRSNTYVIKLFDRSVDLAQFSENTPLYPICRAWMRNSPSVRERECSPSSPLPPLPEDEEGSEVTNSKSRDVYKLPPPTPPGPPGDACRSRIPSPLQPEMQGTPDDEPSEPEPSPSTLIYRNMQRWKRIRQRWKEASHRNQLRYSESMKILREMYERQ

Results are given in words; binding and its absence hold for the method and conditions named. In cells and extracts the contact can be indirect. Some results given as binding are weak or reduced against the parent protein; the word gives no strength.

Test [1] addresses HA-tagged p130 (UniProt Q08999). Kind of test: co-IP; extracts of T98G cells transfected with HA-tagged p130, without LT; anti-HA immunoprecipitation; western blot.
Test [2] shares this target. As to the kind of experiment: co-IP; extracts of T98G cells transfected with HA-tagged p130 and LT; anti-HA immunoprecipitation; western blot.

As for LIN37 (from UniProt Q96GY3 1-246), the binding result with HA-tagged p130 [1] was “binds”.

For “SV40 large T antigen (LT) transfected into T98G cells (from UniProt P03070 1-708)”, in the test with HA-tagged p130 [2], the binding result is listed as “binds”.
